Reference: PubChem BioAssay AID504467 (National Center for Advancing Translational Sciences (NCATS), 2011)
Among all 330,000 compounds or so, about 7,700 (2.3%) were called active. The inconclusive results got no clear call from the source; some entries with a clear call stand among them for comparison. The call rests on the fitted dose curve; in most records, active means well fitted inhibition curve with a large enough effect; inconclusive means small, poorly fitted or top-dose-only effect, or effect the other way; inactive means flat fitted curve, though single readings scatter. Potencies of inconclusive entries are doubtful fits and often do not repeat.

Experiment: qHTS screen for small molecules that inhibit ELG1-dependent DNA repair in human embryonic kidney (HEK293T) cells expressing luciferase-tagged ELG1; further: nearly all actives have a fitted effect of over 55% in size
Details: HEK293T ELG1-luciferase reporter, luminescence, 16 h, DNA damage induced by 5-fluorouridine; activity change, negative = inhibition: at 46.1 µM (top of the series)
How it was run: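 Reporter activity after DNA damage by 5-fluorouridine is monitored. Compound-treated cells incubate 16 hr at 37 °C, then ONE-Glo is added for 30 min before luminescence reading.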
On the % scale 0 is the no-effect control and ±100 the full control effect; potency means the concentration at half of the fitted maximal effect.

| Structure (SMILES) | activity change, negative = inhibition | Potency |
| --- | --- | --- |
| CCCCN(C(=O)CCC(=O)Nc1cc(C)on1)C(C(=O)NC1CCCC1)c1cccc(OC)c1 (stereo not drawn) | inactive: -19.7% | – |
| COC(=O)COn1c(SC(C)C)nc2ccccc2c1=O | inactive: 15.7% | – |
| COC(=O)c1ccc(C(=O)OC)c(NC(=S)N2CCN(c3ccccc3)CC2)c1 | – | inconclusive: 6.51 µM [inhibitor, partial curve, poor fit] |
| Cc1cccc(S(=O)(=O)CC(=O)Nc2nc(-c3ccccc3)cs2)c1 | – | inconclusive: 29.1 µM [inhibitor, single point] |
| O=C(CSc1nc(-c2ccc(F)cc2)cs1)N1CCOCC1 | – | inconclusive: 6.51 µM [activator, partial curve] |
| CCN(C(=O)c1cc2c(s1)-c1ccccc1S(=O)(=O)C2)c1cc(OC)ccc1OC | – | inconclusive: 23.1 µM [inhibitor, single point] |
| O=C(NCCN1CCN(Cc2ccc([N+](=O)[O-])cc2)CC1)C(=O)Nc1ccccc1 | inactive: 9.79% | – |
| COc1ccc(C(=O)NCC(=O)N2CCNC(=O)C2)cc1OC | – | inconclusive: 0.184 µM [inhibitor, full curve] |
| Cc1sc2nc(C(C)C)nc(SCC(=O)NCc3ccco3)c2c1C | – | inconclusive: 20.6 µM [inhibitor, single point] |
| COc1ccccc1OCC(=O)Nc1nc2c(s1)CCCC2 | – | inconclusive: 14.6 µM [activator, partial curve] |
| O=c1[nH]c2ccccc2nc1-c1cccs1 | – | inconclusive: 18.4 µM [activator, partial curve] |
| CC(Oc1ccc(/C=N/NC(=O)Cc2cccc3ccccc23)cc1)C(=O)O (stereo not drawn) | inactive: -15.9% | – |
| O=C(CNC(=O)c1ccco1)NCC(=O)OCC(=O)c1ccc(Cl)c([N+](=O)[O-])c1 | inactive: -4.76% | – |
| CCN(C(=O)COC(=O)/C=C/c1nc2ccccc2s1)C1CCS(=O)(=O)C1 (stereo not drawn) | – | active: 9.2 µM |
| CCN(CC)S(=O)(=O)c1ccc2[nH]c(=O)cc(C(=O)NCc3ccccc3)c2c1 | – | inconclusive: 4.11 µM [activator, partial curve] |
| Cc1ccc(NC(=O)c2noc3c2CCCCC3)cc1C | – | inconclusive: 0.651 µM [activator, full curve] |
| C=CCNc1sc(C(=O)c2ccc(C)cc2)c(N)c1C#N | inactive: 2.17% | – |
| CNC(=S)N/N=C(\C)c1ccc(Cl)s1 | inactive: 6.78% | – |
| O=C(Nc1ccc2c(c1)nc1n2CCOC1)c1ccco1 | – | inconclusive: 6.51 µM [activator, partial curve] |
| C1=C(CCNCC2CC2)CCCC1 | inactive: -1.2% | – |
| CC1CCCC(C)N1C(=O)CSc1nnc(-c2c[nH]c3ccccc23)o1 (stereo not drawn) | – | inconclusive: 2.91 µM [activator, full curve, poor fit] |
| CCOC(=O)c1c(C)n(C)c2ccc(O)c(CN3CCC(C)CC3)c12 | – | inconclusive: 29.1 µM [inhibitor, single point] |
| Oc1[nH]c2ccccc2c1N=Nc1c(F)c(F)c(C(F)(F)F)c(F)c1F | inactive: 7.56% | – |
| O=[N+]([O-])c1ccc(CSc2ccc(S(=O)(=O)N3CCCCCC3)cn2)cc1 | inactive: -19% | – |
| CCN1/C(=C/C(C)=C/c2sc3ccccc3[n+]2CC)Sc2ccccc21 | – | active: 1.83 µM |

Three structures out of the list, arranged by length of the SMILES, descending.

| Structure (SMILES) | activity change, negative = inhibition | Potency |
| --- | --- | --- |
| CCN(CC)S(=O)(=O)c1ccc2[nH]c(=O)cc(C(=O)NCc3ccccc3)c2c1 | – | inconclusive: 4.11 µM [activator, partial curve] |
| CCN1/C(=C/C(C)=C/c2sc3ccccc3[n+]2CC)Sc2ccccc21 | – | active: 1.83 µM |
| C1=C(CCNCC2CC2)CCCC1 | inactive: -1.2% | – |

(further entries)

| Structure (SMILES) | activity change, negative = inhibition | Potency |
| --- | --- | --- |
| CCN(CC)S(=O)(=O)c1ccc(C(=O)OC2CCCCC2CN(C)C)cc1 (stereo not drawn) | inactive: -10.7% | – |
| O=C1/C(=C/c2ccc3c(c2)OCO3)Oc2cc(OCC(=O)N3CCC[C@H]3C(=O)O)ccc21 | inactive: 17.7% | – |
| Cc1ccc(-c2csc3ncnc(-n4cnc5ccccc54)c23)cc1 | – | active: 10.3 µM |
| CCN(C(=O)CSc1ncnc2sc(C)c(C)c12)C1CCS(=O)(=O)C1 (stereo not drawn) | – | inconclusive: 29.1 µM [inhibitor, single point] |
| Cc1ccc(C(=O)Nc2ccc(C(=O)N/N=C/c3cccnc3)cc2)cc1 | – | inconclusive: 16.4 µM [activator, single point] |
| CC(=O)NC(C)c1cc(Cl)c2ccccc2c1O (stereo not drawn) | – | inconclusive: 29.1 µM [activator, single point] |
| c1ccc(CC2CCN(c3nc4ccccc4n4cnnc34)CC2)cc1 | – | inconclusive: 25.9 µM [inhibitor, single point] |
| C=CCn1c(NCc2ccc(OC)cc2O)nc2ccccc21 | – | inconclusive: 11.6 µM [activator, partial curve] |
| COc1ccc(CN(CC2CCCO2)C(=O)CN2C(=O)C(C)Oc3ccc(C)cc32)cc1OC (stereo not drawn) | – | active: 8.2 µM |
| O=C(NCC(c1ccco1)N1CCN(c2ccccc2F)CC1)C(=O)NC1CCCC1 (stereo not drawn) | inactive: -26.9% | – |
| CC(Oc1ccc(Cl)cc1)C(=O)Nc1ccccc1N1CCOCC1 (stereo not drawn) | – | inconclusive: 29.1 µM [inhibitor, single point] |
| Cc1ccc(-c2csc3ncnc(N4CCN(C(=O)c5ccco5)CC4)c23)cc1 | – | active: 16.4 µM |
| O=C(O)CC1S/C(=N/N=C/c2ccc(-c3ccccc3[N+](=O)[O-])o2)NC1=O (stereo not drawn) | inactive: 2.13% | – |
| COC(=O)C1=C(C)Nc2ncnn2C1c1ccc(OC(=O)c2ccccc2)cc1 (stereo not drawn) | – | inconclusive: 5.17 µM [inhibitor, single point] |
| CSc1ccc(/C=C/C(=O)c2ccc(NC(C)=O)cc2)cc1 | inactive: 22.8% | – |
| COc1cc(CCC(=O)OCC(=O)N(CC(C)C)C2CCS(=O)(=O)C2)cc(OC)c1OC (stereo not drawn) | inactive: 17.2% | – |
| COc1ccccc1/C=N/NC(=O)c1ccc(Br)cc1 | – | inconclusive: 0.0092 µM [inhibitor, full curve] |
| COc1ccc(NC(=O)CCCOc2ccc(Cl)c(C)c2)cc1S(=O)(=O)N1CCOCC1 | – | inconclusive: 20.6 µM [inhibitor, single point] |
| COc1ccc(C(=O)NNC(=O)Cc2nc3nc(C)cc(C)n3n2)cc1 | inactive: 8.9% | – |
| COc1ccc(OC)c(Nc2nc(-c3cccs3)cs2)c1 | inactive: 27.3% | – |
| Cc1cc(C)c(NC(=O)c2ccc3nccnc3c2)c(C)c1 | – | inconclusive: 8.2 µM [inhibitor, partial curve, poor fit] |
| c1ccc2cc(CSCc3nc4ccccc4[nH]3)ccc2c1 | inactive: 0.636% | – |
| COc1cc(NC(=O)Nc2c(C)n(C)n(-c3ccccc3)c2=O)cc(OC)c1OC | – | inconclusive: 1.41 µM [activator, partial curve, poor fit] |
| Cc1nnc(NC(=O)c2ccco2)s1 | – | inconclusive: 18.4 µM [activator, partial curve] |
| CCc1c(C)c(C#N)c2nc3ccccc3n2c1N1CCN(c2cc(C)ccn2)CC1 | – | inconclusive: 7.08 µM [activator, full curve, poor fit] |

| Structure (SMILES) | activity change, negative = inhibition | Potency |
| --- | --- | --- |
| CCOc1nc(NC2CCCCC2)nc(NC(C)(C)C)n1 | inactive: -2.06% | – |
| COc1ccc(C(=O)CSc2ccc(-c3ccc(C)cc3)nn2)cc1 | – | inconclusive: 14.6 µM [activator, partial curve] |
| O=c1[nH]c(=O)n(-c2ccc(F)cc2)c2c1C(C(F)(F)F)(C(F)(F)F)N=C(c1ccc(F)cc1)N2 | – | inconclusive: 1.84 µM [inhibitor, partial curve] |
| O=C1CC(NS(=O)(=O)c2cccnc2)CN1c1cccc(F)c1 (stereo not drawn) | inactive: 0% | – |
| O=C(NC(=S)Nc1ccccc1N1CCOCC1)c1sc2ccccc2c1Cl | inactive: 14.9% | – |
| O=c1[nH]cnc2cc(-c3ccccc3)sc12 | – | inconclusive: 16.4 µM [activator, partial curve] |
| O=c1[nH]c(C2CCCN(S(=O)(=O)c3ccccc3)C2)nc2c1nnn2Cc1ccccc1 (stereo not drawn) | – | inconclusive: 29.1 µM [inhibitor, single point] |
| N#Cc1ccc(/C=N/NC(=O)c2cc(-c3cccs3)nc3ccccc23)cc1 | inactive: -20.4% | – |
| CN(C)/C=N/c1nc(-c2ccc3c(c2)OCO3)cs1 | – | inconclusive: 11.6 µM [activator, partial curve] |
| O=C(Cn1c(=O)n(-c2ccc(F)cc2)c(=O)c2sccc21)c1ccccc1 | inconclusive: 25.3% [activator] | – |
| Cc1cc(C2=NNC(=NC3CC3)SC2)c(C)n1-c1ccccc1 | – | active: 4.61 µM |
| Cc1sc(NC(=O)/C=C/c2ccco2)c(C(=O)O)c1C | – | inconclusive: 16.4 µM [activator, partial curve] |
| Cc1cc(OCCn2nc(C(=O)O)c3ccccc3c2=O)ccc1C(C)C | – | inconclusive: 29.1 µM [inhibitor, single point] |
| COc1ccc([C@H]2CC(=O)C=C(c3cccc(C(C)C)c3)C2)cc1OC | – | inconclusive: 25.9 µM [inhibitor, single point] |
| C=CCn1c(C)cc(-c2csc(NCC)n2)c1C | – | inconclusive: 29.1 µM [inhibitor, single point] |
| CC(C)(C)C(=O)NC(=S)Nc1cccc(C(=O)O)c1 | – | inconclusive: 2.59 µM [activator, full curve] |
| C[C@H](NC(=O)c1nc[nH]c1C(=O)NC1CCNCC1)C(=O)OC(C)(C)C | – | inconclusive: 28.2 µM [activator, single point] |
| C=CCn1c(N)c(C(=O)NC2CCCCC2)sc1=S | inactive: 10.8% | – |
| Cc1cccc(CCNS(=O)(=O)c2ccc(S(=O)(=O)NC3CCCC3)cc2)c1 | – | inconclusive: 23.1 µM [inhibitor, partial curve, poor fit] |
| O=C1c2cccc3cccc(c23)C(=O)N1CC1CCN(S(=O)(=O)c2ccc(F)cc2)CC1 | – | active: 20.6 µM |
| CCC1CN(C(=O)N2CCC(C(=O)Nc3ccccc3F)CC2)c2ccccc2O1 (stereo not drawn) | inactive: 0.0585% | – |
| Cc1ccc2nc(/C(C#N)=C/c3ccc(-c4cccc([N+](=O)[O-])c4)o3)[nH]c2c1 | – | inconclusive: 6.51 µM [inhibitor, full curve] |
| O=C(c1ccco1)N1CCN(C(=O)c2cnn3c2NC(c2cccs2)CC3C(F)(F)F)CC1 (stereo not drawn) | – | inconclusive: 29.1 µM [inhibitor, single point] |

Fetched by structure from the list above, 3 records:

| Structure (SMILES) | activity change, negative = inhibition | Potency |
| --- | --- | --- |
| COc1ccc([C@H]2CC(=O)C=C(c3cccc(C(C)C)c3)C2)cc1OC | – | inconclusive: 25.9 µM [inhibitor, single point] |
| O=c1[nH]c(=O)n(-c2ccc(F)cc2)c2c1C(C(F)(F)F)(C(F)(F)F)N=C(c1ccc(F)cc1)N2 | – | inconclusive: 1.84 µM [inhibitor, partial curve] |
| Cc1cccc(CCNS(=O)(=O)c2ccc(S(=O)(=O)NC3CCCC3)cc2)c1 | – | inconclusive: 23.1 µM [inhibitor, partial curve, poor fit] |
